Cleaved PARP after 72 h of treatment

Source: doi:10.1371/journal.pone.0140310, primary screening data, rounded.

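Human melanoma cells were exposed to a pair of drugs for 72 h in 1,536-well plates and read by automated microscopy after fixing and staining. Each value is the cleaved-PARP-positive fraction of nuclei relative to DMSO-treated wells, in %, so that 100 equals the control and higher values mean more apoptosis. Concentrations were fixed for each drug; these are the higher of two levels. No replicate spread is given; individual values may be noisy. Basal and induced levels differ widely between cell lines.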
Only some of the drugs and lines screened are listed, without regard to their results.
A dash means that no value is listed here.

Drugs:
bexarotene, 10 µM: C=C(c1ccc(C(=O)O)cc1)c1cc2c(cc1C)C(C)(C)CCC2(C)C
vatalanib, 10 µM: Clc1ccc(Nc2nnc(Cc3ccncc3)c3ccccc23)cc1
everolimus, 0.1 µM: CO[C@H]1C[C@@H]2CC[C@@H](C)[C@@](O)(O2)C(=O)C(=O)N2CCCC[C@H]2C(=O)O[C@H]([C@H](C)C[C@@H]2CC[C@@H](OCCO)[C@H](OC)C2)CC(=O)[C@H](C)/C=C(\C)[C@@H](O)[C@@H](OC)C(=O)[C@H](C)C[C@H](C)/C=C/C=C/C=C/1C
tozasertib, 0.03 µM: Cc1cc(Nc2cc(N3CCN(C)CC3)nc(Sc3ccc(NC(=O)C4CC4)cc3)n2)n[nH]1
embelin, 6 µM: CCCCCCCCCCCC1=C(O)C(=O)C=C(O)C1=O
vorinostat, 0.4 µM: O=C(CCCCCCC(=O)Nc1ccccc1)NO
cisplatin, 8 µM: N.N.[Cl][Pt][Cl]
lapatinib, 4 µM: CS(=O)(=O)CCNCc1ccc(-c2ccc3ncnc(Nc4ccc(OCc5cccc(F)c5)c(Cl)c4)c3c2)o1
PD173074, 0.5 µM: CCN(CC)CCCCNc1ncc2cc(-c3cc(OC)cc(OC)c3)c(NC(=O)NC(C)(C)C)nc2n1
XAV939, 10 µM: Oc1nc(-c2ccc(C(F)(F)F)cc2)nc2c1CSCC2

| # | Combination | IST-MEL1 | WM115 | COLO 792 | IPC-298 | MeWo | G-361 | UACC-257 | WM1716 | MZ2-MEL | RVH-421 | COLO 800 | MEL-HO | LB2518-MEL | LOX IMVI | COLO 829 |
|---|---|---|---|---|---|---|---|---|---|---|---|---|---|---|---|---|
| 1 | embelin and XAV939 | 74.1 | 93.3 | 100 | 52.5 | 86.2 | 77.2 | 33.7 | 163 | 35.0 | 59.6 | 35.8 | 35.9 | 77.0 | 198 | 89.0 |
| 2 | tozasertib and XAV939 | 99.9 | 642 | 188 | 133 | 51.5 | 98.5 | 72.7 | 87.3 | 69.3 | 167 | 325 | 91.7 | 131 | 68.2 | 64.1 |
| 3 | bexarotene and cisplatin | 42.8 | 55.6 | 170 | 121 | 137 | 175 | 117 | 61.4 | 542 | 66.4 | 49.7 | 357 | 103 | 179 | 152 |
| 4 | PD173074 and everolimus | 140 | 106 | 99.7 | 47.7 | 307 | 107 | 29.8 | 123 | 24.3 | 63.0 | 116 | 204 | 84.5 | 246 | 120 |
| 5 | vorinostat and embelin | 168 | 165 | 50.4 | 31.0 | 72.6 | 56.0 | 67.1 | 86.9 | 160 | 78.7 | 830 | 120 | 174 | 92.6 | 43.7 |
| 6 | cisplatin and vorinostat | 245 | 220 | 494 | 157 | 91.9 | 131 | 404 | 368 | 126 | 158 | 150 | 43.9 | 130 | 41.1 | 202 |
| 7 | vatalanib and lapatinib | 114 | 417 | 395 | 136 | 125 | 323 | 120 | 91.1 | 147 | 209 | 63.4 | 186 | 180 | 351 | 180 |
| 8 | PD173074 and tozasertib | 168 | 45.4 | 63.8 | 33.0 | 102 | 164 | 19.0 | 171 | 431 | 156 | 419 | 97.5 | 134 | 118 | 49.9 |
| 9 | tozasertib and lapatinib | 86.3 | 839 | 176 | 47.2 | 126 | 80.3 | 59.6 | 97.0 | 60.7 | 67.6 | 365 | 52.9 | 52.6 | 128 | 86.1 |
| 10 | embelin and everolimus | 152 | 157 | 205 | 95.1 | 133 | 62.3 | 29.4 | 250 | 180 | 77.3 | 144 | 121 | 69.2 | 47.7 | 71.4 |
| 11 | embelin and cisplatin | 134 | 37.0 | 111 | 133 | 96.9 | 135 | 87.1 | 129 | 112 | 186 | 59.8 | 258 | 61.6 | 76.2 | 136 |
| 12 | vatalanib and tozasertib | 89.6 | 315 | 126 | 71.9 | 104 | 117 | 92.2 | 46.4 | 287 | 46.3 | 134 | 111 | 269 | 61.8 | 161 |
| 13 | vorinostat and XAV939 | 58.5 | 136 | 170 | 51.0 | 76.9 | 77.8 | 122 | 49.7 | 43.0 | 142 | 343 | 43.7 | 89.1 | 75.0 | 44.1 |
| 14 | everolimus and XAV939 | 72.9 | 73.0 | 197 | 121 | 74.6 | 226 | 82.6 | 191 | 71.5 | 111 | 105 | 106 | 173 | 111 | 74.1 |
| 15 | lapatinib and PD173074 | 50.8 | 253 | 212 | 43.9 | 101 | 97.8 | 43.4 | 142 | 63.7 | 105 | 64.0 | 196 | 126 | 146 | 69.9 |
| 16 | bexarotene and lapatinib | 442 | 178 | 113 | 72.4 | 184 | 174 | 79.3 | 19.7 | 410 | 118 | 140 | 211 | 101 | 110 | 143 |
| 17 | XAV939 and cisplatin | 141 | 61.1 | 104 | 99.8 | 55.1 | 23.4 | 156 | 306 | 144 | 377 | 91.0 | 107 | 47.5 | 130 | 118 |
| 18 | bexarotene and everolimus | 104 | 157 | 88.2 | 233 | 129 | 181 | 44.8 | 45.2 | 109 | 120 | 58.9 | 133 | 246 | 203 | 16.7 |
| 19 | cisplatin and tozasertib | 84.6 | 144 | 157 | 43.2 | 130 | 163 | 332 | 89.8 | 176 | 51.2 | 132 | 50.0 | 62.5 | 50.4 | 84.4 |
| 20 | embelin and vatalanib | 179 | 51.5 | 147 | 79.6 | 61.8 | 79.4 | 56.4 | 139 | 119 | 135 | 257 | 161 | 76.3 | 127 | 186 |
| 21 | PD173074 and bexarotene | 82.6 | 91.5 | 138 | 196 | 132 | 140 | 27.4 | 87.1 | 820 | 39.2 | 172 | 171 | 45.2 | 56.6 | 195 |
| 22 | tozasertib and bexarotene | 267 | 42.3 | 115 | 57.1 | 156 | 64.3 | 71.0 | 103 | 503 | 52.9 | 108 | 84.3 | 150 | 24.6 | 108 |
| 23 | cisplatin and everolimus | 95.3 | 158 | 124 | 179 | 101 | 208 | 352 | 84.7 | 256 | 152 | 179 | 160 | 107 | 222 | 246 |
| 24 | everolimus and tozasertib | 128 | 287 | 108 | 71.6 | 51.9 | 102 | 131 | 117 | 131 | 127 | 79.4 | 96.1 | 169 | 56.7 | 211 |
| 25 | vatalanib and vorinostat | 98.1 | 64.6 | 132 | 416 | 144 | 65.6 | 173 | 358 | 186 | 158 | 393 | 208 | 99.8 | 121 | 171 |
| 26 | PD173074 and cisplatin | 98.4 | 114 | 80.2 | 77.2 | 176 | 142 | 114 | 345 | - | 107 | 83.9 | 79.7 | - | 113 | 130 |
| 27 | lapatinib and vorinostat | 119 | 126 | 68.6 | 135 | 62.3 | 220 | 58.7 | 57.2 | 115 | 52.0 | 73.1 | 208 | 77.9 | 70.9 | 98.5 |
| 28 | vorinostat and bexarotene | 133 | 101 | 192 | 96.9 | 61.4 | 196 | 181 | 111 | 417 | 60.7 | 52.2 | 88.2 | 94.3 | 77.3 | 113 |
| 29 | XAV939 and vatalanib | 132 | 52.8 | 130 | 107 | 232 | 101 | 25.8 | 136 | 81.8 | 226 | 133 | 40.0 | 101 | 117 | 164 |
| 30 | tozasertib and vorinostat | 191 | 488 | 249 | 94.9 | 174 | 163 | 126 | 263 | 385 | 225 | 375 | 46.6 | 334 | 124 | 296 |
| 31 | everolimus and lapatinib | 169 | 181 | 123 | 68.3 | 79.2 | 271 | 143 | 36.1 | 70.5 | 66.2 | 93.0 | 54.7 | 287 | 121 | 202 |
| 32 | embelin and bexarotene | 223 | 106 | 174 | 40.7 | 100 | 134 | 33.8 | 83.9 | 109 | 79.8 | 135 | 304 | 47.4 | 59.9 | 64.7 |
| 33 | embelin and lapatinib | 353 | 122 | 115 | 93.3 | 126 | 48.1 | 68.5 | 43.8 | 68.0 | 283 | 149 | 221 | 124 | 78.6 | 93.1 |
| 34 | tozasertib and embelin | 116 | 47.7 | 118 | 95.3 | 151 | 178 | 86.4 | 226 | 205 | 181 | 216 | 112 | 172 | 180 | 96.1 |
| 35 | vatalanib and cisplatin | 78.8 | 117 | 88.6 | 184 | 50.7 | 140 | 135 | 477 | 83.4 | 118 | 156 | 201 | 160 | 165 | 117 |
| 36 | XAV939 and bexarotene | 213 | 36.3 | 57.2 | 91.7 | 58.9 | 150 | 76.5 | 125 | 250 | 161 | 111 | 91.1 | 197 | 76.1 | 129 |
| 37 | XAV939 and PD173074 | 56.6 | 62.2 | 26.0 | 45.7 | 42.0 | 82.2 | 47.8 | 68.5 | 26.5 | 136 | 89.6 | 95.9 | 34.5 | 113 | 48.6 |
| 38 | PD173074 and vatalanib | 71.2 | 83.9 | 187 | 116 | 128 | 85.6 | 19.7 | 28.7 | 147 | 68.1 | 296 | 62.8 | 89.2 | 94.9 | 56.8 |

4 of the entries, repeated:

Combination	IST-MEL1	WM115	COLO 792	IPC-298	MeWo	G-361	UACC-257	WM1716	MZ2-MEL	RVH-421	COLO 800	MEL-HO	LB2518-MEL	LOX IMVI	COLO 829
bexarotene and lapatinib	442	178	113	72.4	184	174	79.3	19.7	410	118	140	211	101	110	143
embelin and lapatinib	353	122	115	93.3	126	48.1	68.5	43.8	68.0	283	149	221	124	78.6	93.1
vatalanib and vorinostat	98.1	64.6	132	416	144	65.6	173	358	186	158	393	208	99.8	121	171
lapatinib and PD173074	50.8	253	212	43.9	101	97.8	43.4	142	63.7	105	64.0	196	126	146	69.9